Laboratory results taken from paper PMC10395914.
No constants are given. Whether binding was seen depends on the method and setting. In cells and extracts the contact can be indirect. Some results given as binding are weak or reduced against the parent protein; the word gives no strength.

Protein sequences, listed by entry. Tags and fused reporters are not part of them.
UniProt P31152: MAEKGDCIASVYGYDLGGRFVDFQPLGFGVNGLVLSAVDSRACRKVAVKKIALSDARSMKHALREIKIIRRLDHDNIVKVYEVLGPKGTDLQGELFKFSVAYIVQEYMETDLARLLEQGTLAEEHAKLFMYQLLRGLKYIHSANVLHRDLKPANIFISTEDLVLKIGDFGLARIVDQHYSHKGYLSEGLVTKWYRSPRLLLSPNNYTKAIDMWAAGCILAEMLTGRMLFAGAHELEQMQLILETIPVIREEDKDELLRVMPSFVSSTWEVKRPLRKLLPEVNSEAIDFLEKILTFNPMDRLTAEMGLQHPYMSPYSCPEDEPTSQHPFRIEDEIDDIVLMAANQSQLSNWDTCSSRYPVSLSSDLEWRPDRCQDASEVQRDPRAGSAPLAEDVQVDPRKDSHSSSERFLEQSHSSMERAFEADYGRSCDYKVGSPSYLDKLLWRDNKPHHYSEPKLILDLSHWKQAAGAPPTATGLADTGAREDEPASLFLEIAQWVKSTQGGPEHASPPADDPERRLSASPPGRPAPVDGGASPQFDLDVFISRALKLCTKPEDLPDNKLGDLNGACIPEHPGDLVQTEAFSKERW
UniProt P06730: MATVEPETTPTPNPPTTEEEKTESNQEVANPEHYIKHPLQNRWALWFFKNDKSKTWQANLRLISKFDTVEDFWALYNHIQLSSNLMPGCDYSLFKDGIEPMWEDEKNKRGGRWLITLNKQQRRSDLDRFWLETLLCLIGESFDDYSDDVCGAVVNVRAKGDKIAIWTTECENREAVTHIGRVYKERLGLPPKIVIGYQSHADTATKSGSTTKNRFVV

How the values were obtained:
[1] = target: Flag/His-tagged MAPK4 (UniProt P31152); assay: co-IP; HEK293T cells co-transfected with the two tagged proteins; lysates prepared 48 h later; immunoprecipitation with anti-FLAG M2 affinity gel, then western blots
[2] = target: Flag-tagged eIF4E (human) (UniProt P06730); assay: as above
[3] = target: GST-MAPK4 fusion protein (UniProt P31152); assay: pull-down; purified GST-MAPK4 as bait with MDA-MB-231, HS578T and HCC1937 cell lysates; GST-FH (GST-HF) protein as control; western blot for endogenous eIF4E; only the target purified

“HA-tagged eIF4E (from UniProt P06730 1-217)” was tested, and the binding [1] was “binds”.
With “HA-tagged MAPK4 (mitogen-activated protein kinase 4) (from UniProt P31152 1-587) (enzyme)” the binding [2] was “binds”.
“endogenous eIF4E (from UniProt P06730 1-217)” was tested, and the binding [3] was “binds”.
